Assay results from the supplement of paper PMC12067093, “Discovery and optimisation of a covalent ligand for TRIM25 and its application to targeted protein ubiquitination” (Chemical Science, 2025).
Some of the results follow.

Compound: Cc1cc(ccc1-c1ccccc1)C(=O)N1CCCN(CC1)C(=O)CCl [compound 10]
Test: probe-labelled cysteine peptide fold change vs DMSO (competition) (log2 fold change); higher = less target engagement (more negative = stronger competition)
Conditions: THP-1, incubation time: 4 h
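Further: competitive profiling in live THP-1 cells: cysteine peptides tagged with an iodoacetamide desthiobiotin (IA-DTB) probe, intensity after compound treatment relative to DMSO-treated cells.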

Target	probe-labelled cysteine peptide fold change (10 µM)	probe-labelled cysteine peptide fold change (50 µM)
DYNLT3_P51808_8_HCDEVGFNAEEAHNIVK (UniProt P51808)	-0.14	-0.282
DUS3L_Q96G46_315_LYLAPLTTCGNLPFR (UniProt Q96G46)	-0.259	-0.0436
DOCK5_Q9H7D0_316_KHTCGLR (UniProt Q9H7D0)	-0.0526	-0.218
DSCC1_Q9BVC3_111_KEDSHCNIIHTEIFGFSNNYWELR (UniProt Q9BVC3)	-0.0834	0.00737
DUSP9_Q99956_27_LLLLDCR (UniProt Q99956)	-0.0107	-0.265
DPP7_Q9UHL4_332+338_LYHSCADPTGCGTGPDAR (UniProt Q9UHL4)	0.00325	0.329
DYNC1H1_Q14204_2663_WLVLFCDEINLPDMDK (UniProt Q14204)	0.0525	0.0766
DPP9_Q86TI2_184_TQCSGPR (UniProt Q86TI2)	-0.198	-0.0818
DNMT3A_Q9Y6K1_818_LELQECLEHGR (UniProt Q9Y6K1)	-0.241	0.0362
DYNC1H1_Q14204_2639_TFDHYCEYR (UniProt Q14204)	0.212	0.245
DOCK8_Q8NF50_939_MSYYCSGSSDAPSSPAAPRPASK (UniProt Q8NF50)	-0.194	-0.304
DRG2_P55039_270_KPNSVVISCGMK (UniProt P55039)	0.122	0.181
DSN1_Q9H410_191_CFEDSNGK (UniProt Q9H410)	0.00077	0.213
DPH2_Q9BQC3_157_APVVLLSEPACAHALEALATLLRPR (UniProt Q9BQC3)	0.0215	0.0943
DYNC1I2_Q13409_331_KTTPEYVFHCQSAVMSATFAK (UniProt Q13409)	0.023	0.221
DOP1B_Q9Y3R5_70_LAQCLHPALPSGVHLK (UniProt Q9Y3R5)	0.232	0.217
DYNC1LI2_O43237_234_CDAVSVLEK (UniProt O43237)	0.381	-0.107
DPH7_Q9BTV6_377_GASELPTPCHECR (UniProt Q9BTV6)	0.0426	-0.0466
DOK3_Q7L591_133+144_LADCVSVLPADGESCPR (UniProt Q7L591)	-0.254	-0.356
DSCR3_O14972_219+221_VETCGCAEGYAR (UniProt O14972)	-0.345	-2.51
DOCK2_Q92608_607_DVFSISTLVCSTK (UniProt Q92608)	-0.0689	0.0595

Target	probe-labelled cysteine peptide fold change (10 µM)	probe-labelled cysteine peptide fold change (50 µM)
DOCK10_Q96BY6_2108_QFADACGQALDVNER (UniProt Q96BY6)	0.0742	0.102
DYNC1I2_Q13409_386_TPLSAAAHTHPVYCVNVVGTQNAHNLISISTDGK (UniProt Q13409)	0.33	0.14
DOCK11_Q5JSL3_615_NCQNITVEVEEFVPEMTK (UniProt Q5JSL3)	0.0993	0.205
DPP8_Q6V1X1_286_YSGYWWCPK (UniProt Q6V1X1)	0.111	0.217
DOCK11_Q5JSL3_1883_QGCIEEQCK (UniProt Q5JSL3)	-0.0998	-0.412
DOCK8_Q8NF50_1471_VLVNSLNCDQSTTYLTHCFATLR (UniProt Q8NF50)	0.122	0.137
DPP3_Q9NY33_176_EGITTYFSGNCTMEDAK (UniProt Q9NY33)	0.127	0.164
DYNC1H1_Q14204_633_VQYPQSQACK (UniProt Q14204)	-0.0525	-0.0257
DYNLT1_P63172_83_NGAGLHTASSCFWDSSTDGSCTVR (UniProt P63172)	0.0463	0.113
DOCK11_Q5JSL3_1204_DEFPCGFTSPANR (UniProt Q5JSL3)	-0.081	-0.327
DOK2_O60496_65_LSDCLR (UniProt O60496)	-0.0637	-0.196
DRG1_Q9Y295_195_GGINLTATCPQSELDAETVK (UniProt Q9Y295)	0.231	0.182
DYNLT1_P63172_93_NGAGLHTASSCFWDSSTDGSCTVR (UniProt P63172)	0.128	0.408
DOCK10_Q96BY6_2164_RGVDQTCTR (UniProt Q96BY6)	-0.271	-0.308
DUSP23_Q9BVJ7_53_GPPHSDSCPGLTLHR (UniProt Q9BVJ7)	-0.132	0.0175
DUSP23_Q9BVJ7_67_IPDFCPPAPDQIDR (UniProt Q9BVJ7)	0.0201	0.0861
EAF1_Q96JC9_15_MNGTANPLLDREEHCLR (UniProt Q96JC9)	0.231	0.323
DPF2_Q92785_333_CCNICGTSENDDQLLFCDDCDR (UniProt Q92785)	0.147	0.29
DTNBP1_Q96EV8_302_AKPPSSSSTCTDSATR (UniProt Q96EV8)	0.109	-0.201
DYNC1H1_Q14204_3089_CVLNWFGDWSTEALYQVGK (UniProt Q14204)	-0.146	-0.142
DSN1_Q9H410_65_GGNCDLSHQER (UniProt Q9H410)	-0.0435	-0.00352

Target	probe-labelled cysteine peptide fold change (10 µM)	probe-labelled cysteine peptide fold change (50 µM)
DNTTIP1_Q9H147_156_QAEEECAHR (UniProt Q9H147)	-0.0863	-0.151
DPP3_Q9NY33_654_ALYEGYATVTDAPPECFLTLR (UniProt Q9NY33)	0.22	0.451
DPF2_Q92785_298_TGQPEELVSCSDCGR (UniProt Q92785)	0.307	0.271
DTX3L_Q8TDB6_175_VCGDFQDIER (UniProt Q8TDB6)	-0.0317	-0.386
DUS3L_Q96G46_408_GGGCALMNR (UniProt Q96G46)	-0.166	-0.343
DYNC1H1_Q14204_2454_CLGSLFSMLHQACR (UniProt Q14204)	-0.1	0.00442
DST_Q03001_5394_AAQLQEALLHCGR (UniProt Q03001)	0.0694	0.239
DPYSL2_Q16555_179_FQLTDCQIYEVLSVIR (UniProt Q16555)	0.149	0.122
DUS1L_Q6P1R4_265_EHPCPLSYVR (UniProt Q6P1R4)	0.0863	-0.0331
DUS3L_Q96G46_315_LYLAPLTTCGNLPFRR (UniProt Q96G46)	-0.324	-0.567
DPF2_Q92785_276_KGPDGLALPNNYCDFCLGDSK (UniProt Q92785)	0.0347	-0.195
DUS2_Q9NX74_430_KLAEQAAAIVCLR (UniProt Q9NX74)	-0.207	-0.328
DOK3_Q7L591_323_LPELTRPQPCPLPR (UniProt Q7L591)	0.54	0.45
DTX3L_Q8TDB6_309_QECVSLADSK (UniProt Q8TDB6)	0.0786	0.101
DYNC1H1_Q14204_1999_TSAPITCELLNK (UniProt Q14204)	-0.0531	-0.102
DOCK5_Q9H7D0_1532_ISNCVQQHAWDR (UniProt Q9H7D0)	-0.0823	-0.0364
DYNC1H1_Q14204_4510_NIHVCLGGLFVPEAYITATR (UniProt Q14204)	0.259	0.0837
DYNC1H1_Q14204_2712_IQFVGACNPPTDPGRKPLSHR (UniProt Q14204)	-0.0552	0.27
DOCK11_Q5JSL3_1190_DTLYSCAAMPNSASR (UniProt Q5JSL3)	-0.449	-1.02
DYRK1A_Q13627_312_IVDFGSSCQLGQR (UniProt Q13627)	0.178	0.0341
DYNC1H1_Q14204_1888_CYLTMTQALEAR (UniProt Q14204)	-0.0386	-0.161

Target	probe-labelled cysteine peptide fold change (10 µM)	probe-labelled cysteine peptide fold change (50 µM)
DOCK10_Q96BY6_2047_KVSELNQLCTMEEVDMIR (UniProt Q96BY6)	-0.19	0.00399
DPYSL2_Q16555_133_SCCDYSLHVDISEWHK (UniProt Q16555)	0.0779	-0.285
ECH1_Q13011_159+171+182_CPKPVIAAVHGGCIGGGVDLVTACDIR (UniProt Q13011)	0.25	-0.263
DUS3L_Q96G46_396_TVEVDFVDINVGCPIDLVYK (UniProt Q96G46)	-0.0529	0.0764
DOHH_Q9BU89_242_HECAEALGAIAR (UniProt Q9BU89)	0.14	-0.058
DOCK10_Q96BY6_2164_GVDQTCTR (UniProt Q96BY6)	-0.217	-0.122
ECH1_Q13011_187_YCAQDAFFQVK (UniProt Q13011)	0.086	0.117
DPP9_Q86TI2_550_LTTPGFSHSCSMSQNFDMFVSHYSSVSTPPCVHVYK (UniProt Q86TI2)	0.422	0.456
DSTN_P60981_147_ACIAEK (UniProt P60981)	0.0205	-0.0332
DOK3_Q7L591_295_CHSGEGLFAFSTPCAPDLCR (UniProt Q7L591)	0.104	0.0948
DOCK8_Q8NF50_846_NCLLASYVHYVFR (UniProt Q8NF50)	0.0162	0.428
DSTN_P60981_163_LGGSLIVAFEGCPV (UniProt P60981)	-0.192	-0.173
DPYD_Q12882_671_SEDSGADALELNLSCPHGMGER (UniProt Q12882)	-0.0548	-0.264
DOCK8_Q8NF50_259_QAELFALYPSVDEEDAVEIRPVPECPK (UniProt Q8NF50)	-0.0266	-0.175
EBNA1BP2_Q99848_56_QCLAEFK (UniProt Q99848)	0.241	0.121
EAPP_Q56P03_262_AETDVEEIYHPVMCTECSTEVAVYDKDEVFHFFNVLASHS (UniProt Q56P03)	0.00811	-0.175
DYNC1H1_Q14204_2639_TFDHYCEYRR (UniProt Q14204)	-0.0687	-0.154
DOK3_Q7L591_402_ASGPPGNEHLYENLCVLEASPTLHGGEPEPHEGPGSR (UniProt Q7L591)	-0.122	-0.541
DYNC1H1_Q14204_4644_GVAVLCTE (UniProt Q14204)	-0.185	0.0749
DRG2_P55039_319_KGASVEHVCHR (UniProt P55039)	0.128	0.037
